The assay deals with Strep-tagged STING (full-length), Q86WV6. The experiment in a line: co-IP; HEK293T co-transfected with Strep-tagged STING, HA-tagged IRF3 and Flag-tagged TBK1 for 18 h, then DMSO or CA (20 µM) for 6 h; lysates precipitated with Strep affinity beads for 4 h, western blot. As to conditions: remark: other sources report otherwise. On the technique in general: In western blotting, separated proteins are transferred to a membrane and probed.

Consider two molecules from PMC11984877, “Carnosic Acid Directly Targets STING C‐Terminal Tail to Improve STING‐Mediated Inflammatory Diseases” (Advanced Science, 2025).

No constants are given. Whether binding was seen depends on the method and setting. In cells and extracts the contact can be indirect. Some binding calls cover weakened binding; strength is not graded here. Where a sequence is shown, tags or fusion partners need not be part of it.

B1: HA-tagged interferon regulatory factor 3 (IRF3), Q14653 1-427 (protein)
chain: MGTPKPRILPWLVSQLDLGQLEGVAWVNKSRTRFRIPWKHGLRQDAQQEDFGIFQAWAEATGAYVPGRDKPDLPTWKRNFRSALNRKEGLRLAEDRSKDPHDPHKIYEFVNSGVGDFSQPDTSPDTNGGGSTSDTQEDILDELLGNMVLAPLPDPGPPSLAVAPEPCPQPLRSPSLDNPTPFPNLGPSENPLKRLLVPGEEWEFEVTAFYRGRQVFQQTISCPEGLRLVGSEVGDRTLPGWPVTLPDPGMSLTDRGVMSYVRHVLSCLGGGLALWRAGQWLWAQRLGHCHTYWAVSEELLPNSGHGPDGEVPKDKEGGVFDLGPFIVDLITFTEGSGRSPRYALWFCVGESWPQDQPWTKRLVMVKVVPTCLRALVEMARVGGASSLENTVDLHISNSHPLSLTSDQYKAYLQDLVEGMDFQGPGES
On to B1, for which the binding entry was “binds”.

B2: Flag-tagged TANK-binding kinase 1 (TBK1), Q9UHD2 1-729 (enzyme)
chain: MQSTSNHLWLLSDILGQGATANVFRGRHKKTGDLFAIKVFNNISFLRPVDVQMREFEVLKKLNHKNIVKLFAIEEETTTRHKVLIMEFCPCGSLYTVLEEPSNAYGLPESEFLIVLRDVVGGMNHLRENGIVHRDIKPGNIMRVIGEDGQSVYKLTDFGAARELEDDEQFVSLYGTEEYLHPDMYERAVLRKDHQKKYGATVDLWSIGVTFYHAATGSLPFRPFEGPRRNKEVMYKIITGKPSGAISGVQKAENGPIDWSGDMPVSCSLSRGLQVLLTPVLANILEADQEKCWGFDQFFAETSDILHRMVIHVFSLQQMTAHKIYIHSYNTATIFHELVYKQTKIISSNQELIYEGRRLVLEPGRLAQHFPKTTEENPIFVVSREPLNTIGLIYEKISLPKVHPRYDLDGDASMAKAITGVVCYACRIASTLLLYQELMRKGIRWLIELIKDDYNETVHKKTEVVITLDFCIRNIEKTVKVYEKLMKINLEAAELGEISDIHTKLLRLSSSQGTIETSLQDIDSRLSPGGSLADAWAHQEGTHPKDRNVEKLQVLLNCMTEIYYQFKKDKAERRLAYNEEQIHKFDKQKLYYHATKAMTHFTDECVKKYEAFLNKSEEWIRKMLHLRKQLLSLTNQCFDIEEEVSKYQEYTNELQETLPQKMFTASSGIKHTMTPIYPSSNTLVEMTLGMKKLKEEMEGVVKELAENNHILERFGSLTMDGGLRNVDCL
Regarding B2, the binding entry is recorded as “binds”.
